Data taken from the supplement of paper PMC10849652.
The other results are listed elsewhere or left out.

The chains behind the UniProt entries cited, without tags or fusion partners. Where a name states a change or a piece, a line headed by the entry shows the natural chain unless it says otherwise.
UniProt O95999: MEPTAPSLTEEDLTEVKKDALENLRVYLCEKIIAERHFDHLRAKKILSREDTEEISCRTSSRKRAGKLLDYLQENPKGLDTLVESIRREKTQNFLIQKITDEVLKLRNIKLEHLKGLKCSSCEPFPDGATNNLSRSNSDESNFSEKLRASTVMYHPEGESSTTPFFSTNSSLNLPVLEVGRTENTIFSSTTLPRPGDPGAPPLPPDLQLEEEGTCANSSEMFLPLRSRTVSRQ
UniProt O95817, whole entry, looked up: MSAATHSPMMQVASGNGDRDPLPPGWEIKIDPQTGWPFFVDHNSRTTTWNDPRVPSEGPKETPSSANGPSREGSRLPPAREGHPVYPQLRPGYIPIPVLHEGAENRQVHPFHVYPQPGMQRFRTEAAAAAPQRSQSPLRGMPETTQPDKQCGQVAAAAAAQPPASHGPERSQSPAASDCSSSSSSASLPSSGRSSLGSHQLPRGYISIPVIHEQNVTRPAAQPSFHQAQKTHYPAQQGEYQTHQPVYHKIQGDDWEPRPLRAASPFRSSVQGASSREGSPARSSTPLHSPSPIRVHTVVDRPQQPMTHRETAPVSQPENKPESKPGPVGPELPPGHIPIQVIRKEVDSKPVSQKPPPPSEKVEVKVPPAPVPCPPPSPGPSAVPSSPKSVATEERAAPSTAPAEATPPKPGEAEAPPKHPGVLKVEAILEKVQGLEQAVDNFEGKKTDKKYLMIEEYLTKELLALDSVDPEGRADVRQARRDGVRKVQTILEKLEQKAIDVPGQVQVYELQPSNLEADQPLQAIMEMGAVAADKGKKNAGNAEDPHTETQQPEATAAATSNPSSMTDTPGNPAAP
UniProt Q13867: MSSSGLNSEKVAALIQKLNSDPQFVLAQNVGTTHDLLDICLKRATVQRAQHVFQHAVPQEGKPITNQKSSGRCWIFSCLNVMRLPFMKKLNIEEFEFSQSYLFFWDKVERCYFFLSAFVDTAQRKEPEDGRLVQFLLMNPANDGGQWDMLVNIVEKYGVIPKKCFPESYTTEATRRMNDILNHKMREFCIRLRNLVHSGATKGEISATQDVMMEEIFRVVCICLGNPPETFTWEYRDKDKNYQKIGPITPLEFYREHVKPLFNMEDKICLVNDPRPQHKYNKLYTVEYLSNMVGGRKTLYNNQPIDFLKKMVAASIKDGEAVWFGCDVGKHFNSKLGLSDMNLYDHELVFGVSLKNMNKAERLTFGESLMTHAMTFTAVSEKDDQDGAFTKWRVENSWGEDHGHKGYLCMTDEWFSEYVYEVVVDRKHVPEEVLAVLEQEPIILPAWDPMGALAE
UniProt P21953: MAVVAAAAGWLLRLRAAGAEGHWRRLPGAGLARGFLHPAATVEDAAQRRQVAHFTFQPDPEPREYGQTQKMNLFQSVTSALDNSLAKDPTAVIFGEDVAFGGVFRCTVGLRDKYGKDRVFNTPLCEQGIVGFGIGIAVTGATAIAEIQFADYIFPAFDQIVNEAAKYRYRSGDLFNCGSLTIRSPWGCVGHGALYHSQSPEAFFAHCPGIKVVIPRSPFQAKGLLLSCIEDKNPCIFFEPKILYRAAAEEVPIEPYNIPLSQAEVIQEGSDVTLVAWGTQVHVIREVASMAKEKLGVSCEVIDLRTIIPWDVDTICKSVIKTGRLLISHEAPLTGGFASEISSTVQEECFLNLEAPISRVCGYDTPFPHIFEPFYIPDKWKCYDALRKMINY
UniProt Q7Z7M8: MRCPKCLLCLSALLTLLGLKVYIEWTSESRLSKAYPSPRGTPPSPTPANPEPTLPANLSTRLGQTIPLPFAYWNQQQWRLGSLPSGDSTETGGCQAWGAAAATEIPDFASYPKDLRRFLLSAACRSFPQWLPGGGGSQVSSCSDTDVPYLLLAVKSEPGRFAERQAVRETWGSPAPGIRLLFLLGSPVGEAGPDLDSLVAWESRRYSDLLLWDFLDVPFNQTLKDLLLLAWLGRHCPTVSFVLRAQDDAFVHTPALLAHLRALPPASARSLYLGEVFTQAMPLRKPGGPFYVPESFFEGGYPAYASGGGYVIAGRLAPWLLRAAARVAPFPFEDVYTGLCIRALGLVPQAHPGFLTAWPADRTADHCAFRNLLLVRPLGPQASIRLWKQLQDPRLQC
UniProt Q9UBB4: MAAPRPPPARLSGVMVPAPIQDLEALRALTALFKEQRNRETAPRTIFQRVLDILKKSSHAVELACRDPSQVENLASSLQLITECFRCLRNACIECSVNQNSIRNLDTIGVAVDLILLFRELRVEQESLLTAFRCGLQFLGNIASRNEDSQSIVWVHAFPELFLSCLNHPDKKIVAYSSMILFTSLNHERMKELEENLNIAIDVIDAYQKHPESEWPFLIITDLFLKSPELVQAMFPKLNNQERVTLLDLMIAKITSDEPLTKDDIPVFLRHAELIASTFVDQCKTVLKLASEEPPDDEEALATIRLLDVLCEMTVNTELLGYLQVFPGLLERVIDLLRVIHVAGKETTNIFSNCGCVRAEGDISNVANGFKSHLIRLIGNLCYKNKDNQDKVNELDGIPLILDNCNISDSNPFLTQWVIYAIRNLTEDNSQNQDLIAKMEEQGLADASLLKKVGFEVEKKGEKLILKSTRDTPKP
UniProt Q96G01: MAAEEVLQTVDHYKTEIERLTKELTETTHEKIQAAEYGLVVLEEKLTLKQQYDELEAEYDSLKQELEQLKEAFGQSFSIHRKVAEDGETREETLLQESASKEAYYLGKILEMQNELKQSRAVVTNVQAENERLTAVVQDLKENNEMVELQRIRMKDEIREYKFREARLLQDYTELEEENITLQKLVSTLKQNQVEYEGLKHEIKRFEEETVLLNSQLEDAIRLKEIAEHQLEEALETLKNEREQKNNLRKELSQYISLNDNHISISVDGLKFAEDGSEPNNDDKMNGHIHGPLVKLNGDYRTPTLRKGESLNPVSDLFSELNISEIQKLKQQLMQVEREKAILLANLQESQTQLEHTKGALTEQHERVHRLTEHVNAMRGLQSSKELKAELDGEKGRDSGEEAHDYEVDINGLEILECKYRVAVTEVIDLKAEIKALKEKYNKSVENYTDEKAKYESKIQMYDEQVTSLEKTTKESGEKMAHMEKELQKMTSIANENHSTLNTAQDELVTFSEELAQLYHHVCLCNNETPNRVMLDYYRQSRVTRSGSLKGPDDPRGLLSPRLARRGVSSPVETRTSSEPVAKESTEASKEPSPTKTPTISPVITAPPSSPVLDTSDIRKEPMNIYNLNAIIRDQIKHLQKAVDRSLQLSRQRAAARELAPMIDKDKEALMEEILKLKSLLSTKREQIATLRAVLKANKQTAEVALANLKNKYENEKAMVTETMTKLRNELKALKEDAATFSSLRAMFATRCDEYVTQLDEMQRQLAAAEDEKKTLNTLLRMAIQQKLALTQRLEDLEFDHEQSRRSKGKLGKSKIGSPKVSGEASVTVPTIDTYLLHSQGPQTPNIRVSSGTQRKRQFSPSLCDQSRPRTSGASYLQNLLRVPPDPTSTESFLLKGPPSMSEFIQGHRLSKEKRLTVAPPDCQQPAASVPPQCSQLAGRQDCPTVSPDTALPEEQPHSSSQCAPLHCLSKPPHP
UniProt O15382: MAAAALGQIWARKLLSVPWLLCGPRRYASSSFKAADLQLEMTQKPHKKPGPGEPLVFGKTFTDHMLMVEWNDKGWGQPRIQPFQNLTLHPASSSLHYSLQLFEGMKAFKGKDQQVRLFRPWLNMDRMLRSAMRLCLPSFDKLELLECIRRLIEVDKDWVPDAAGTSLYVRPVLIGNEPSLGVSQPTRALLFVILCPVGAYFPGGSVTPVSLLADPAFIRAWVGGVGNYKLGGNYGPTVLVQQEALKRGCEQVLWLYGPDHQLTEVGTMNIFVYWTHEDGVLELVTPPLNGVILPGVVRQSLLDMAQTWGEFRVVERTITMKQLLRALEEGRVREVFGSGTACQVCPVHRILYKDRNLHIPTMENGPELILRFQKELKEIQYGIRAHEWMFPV
UniProt P12694: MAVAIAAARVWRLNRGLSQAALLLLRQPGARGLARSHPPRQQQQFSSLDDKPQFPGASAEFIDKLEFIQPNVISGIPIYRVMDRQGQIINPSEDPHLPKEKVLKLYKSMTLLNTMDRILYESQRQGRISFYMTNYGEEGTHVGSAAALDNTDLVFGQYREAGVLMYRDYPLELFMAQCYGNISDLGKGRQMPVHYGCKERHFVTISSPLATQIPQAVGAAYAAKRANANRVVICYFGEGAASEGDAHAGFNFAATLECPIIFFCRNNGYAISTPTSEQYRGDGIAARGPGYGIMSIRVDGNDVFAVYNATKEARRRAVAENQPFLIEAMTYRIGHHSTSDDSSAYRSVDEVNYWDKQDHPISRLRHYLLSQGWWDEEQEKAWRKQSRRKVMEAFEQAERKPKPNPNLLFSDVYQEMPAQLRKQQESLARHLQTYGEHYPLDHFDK
UniProt O95816: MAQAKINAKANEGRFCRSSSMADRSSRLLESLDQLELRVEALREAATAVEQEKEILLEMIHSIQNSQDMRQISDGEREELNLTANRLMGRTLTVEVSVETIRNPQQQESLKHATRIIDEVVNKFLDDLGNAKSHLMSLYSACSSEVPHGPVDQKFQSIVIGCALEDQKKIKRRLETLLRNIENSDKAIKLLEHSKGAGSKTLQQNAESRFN
UniProt Q9NWV8, whole entry, looked up: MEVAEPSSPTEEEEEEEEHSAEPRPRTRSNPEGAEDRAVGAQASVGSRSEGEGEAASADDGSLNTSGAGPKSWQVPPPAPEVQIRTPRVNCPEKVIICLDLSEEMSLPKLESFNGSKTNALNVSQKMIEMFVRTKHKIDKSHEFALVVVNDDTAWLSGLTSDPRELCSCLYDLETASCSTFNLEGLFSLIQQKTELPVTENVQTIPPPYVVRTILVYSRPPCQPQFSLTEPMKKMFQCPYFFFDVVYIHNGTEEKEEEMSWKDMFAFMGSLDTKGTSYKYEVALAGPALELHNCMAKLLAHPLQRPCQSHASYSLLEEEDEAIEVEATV
UniProt O14867: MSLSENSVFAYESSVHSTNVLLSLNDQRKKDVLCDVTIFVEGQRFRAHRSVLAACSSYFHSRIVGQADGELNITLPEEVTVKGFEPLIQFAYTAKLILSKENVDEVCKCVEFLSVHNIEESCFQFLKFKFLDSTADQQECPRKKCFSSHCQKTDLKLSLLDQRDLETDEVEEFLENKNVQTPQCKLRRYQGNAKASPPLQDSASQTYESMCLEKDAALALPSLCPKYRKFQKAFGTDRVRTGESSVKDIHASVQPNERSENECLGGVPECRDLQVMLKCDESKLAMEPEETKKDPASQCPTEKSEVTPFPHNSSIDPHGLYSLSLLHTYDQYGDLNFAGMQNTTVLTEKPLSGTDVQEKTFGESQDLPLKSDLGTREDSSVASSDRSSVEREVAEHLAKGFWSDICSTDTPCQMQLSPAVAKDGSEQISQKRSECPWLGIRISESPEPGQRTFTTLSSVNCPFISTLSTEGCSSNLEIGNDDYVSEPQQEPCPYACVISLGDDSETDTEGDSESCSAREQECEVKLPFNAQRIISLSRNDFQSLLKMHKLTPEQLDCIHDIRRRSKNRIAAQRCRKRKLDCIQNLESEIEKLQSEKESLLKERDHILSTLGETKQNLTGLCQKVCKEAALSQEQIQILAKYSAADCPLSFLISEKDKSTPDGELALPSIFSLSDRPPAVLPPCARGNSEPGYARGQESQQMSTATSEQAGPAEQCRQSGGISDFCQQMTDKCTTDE
UniProt Q5VW32: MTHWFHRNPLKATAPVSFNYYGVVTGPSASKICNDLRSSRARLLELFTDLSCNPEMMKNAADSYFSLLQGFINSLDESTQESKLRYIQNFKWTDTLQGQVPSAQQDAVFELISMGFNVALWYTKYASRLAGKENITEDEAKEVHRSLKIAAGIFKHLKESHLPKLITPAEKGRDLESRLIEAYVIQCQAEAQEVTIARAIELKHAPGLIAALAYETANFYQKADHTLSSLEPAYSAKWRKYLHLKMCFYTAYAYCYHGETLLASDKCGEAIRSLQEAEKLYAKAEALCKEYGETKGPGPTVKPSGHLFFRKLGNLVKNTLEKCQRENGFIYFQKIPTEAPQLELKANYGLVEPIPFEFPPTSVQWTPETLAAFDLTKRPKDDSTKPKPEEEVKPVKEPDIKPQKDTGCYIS

Tests used:
Experiment in all cases: log2 fold change, soluble protein after heating vs DMSO (PISA); higher = thermal stabilisation; K562 cells, 10 uM, 30 min; active = over 0.2 and 3.5 SD of the protein, either way, in both replicates (recomputed)
[1] = compound: CC1=C(C=C(C=C1)NC(=O)C2=CC(=CC=C2)C(C)(C)C#N)NC3=CC4=C(C=C3)N=CN(C4=O)C
Method in brief: (§1)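 Soluble protein was defined as the supernatant after 21,000xg for 90 min. It came from K562 cells at 2×10^6 cells/mL given 10 μM compound for 30 min, heated in aliquots for 3 min across 48°C-58°C, pooled, and extracted in PBS with 0.5% NP-40 at 4°C, and was quantified by TMTpro 16plex LC-MS/MS with equalised channel sums. Thermal stability against control samples, from duplicates, is reported as log2 fold change.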

[2] = compound: CC1=C(C=C(C=C1)NC(=O)C2=CC(=CC=C2)N(C)C)NC(=O)C3=CC=C(C=C3)O
Method in brief: as §1

[3] = compound: CC1=CC=C(C=C1)SC2=C3C=C(SC3=CN=C2)C(=O)N
Method in brief: as §1

[4] = compound: CC1=NC(=CC=C1)C2=C(N=C(N2)C(C)(C)C)C3=CC4=NC=CN=C4C=C3
Method in brief: as §1

Nexturastat A = compound: CCCCN(Cc1ccc(C(=O)NO)cc1)C(=O)Nc1ccccc1 [Nexturastat A]
Method in brief: as §1

vemurafenib = compound: CCCS(=O)(=O)Nc1ccc(F)c(C(=O)c2c[nH]c3ncc(-c4ccc(Cl)cc4)cc23)c1F [vemurafenib]
Method in brief: as §1

[5] = compound: CCCS(=O)(=O)Nc1ccc(F)c(C(=O)c2c[nH]c3ncc(Cl)cc23)c1F
Method in brief: as §1

[6] = compound: CCCc1cc(C)[nH]c(=O)c1CNC(=O)c1cc(-c2ccnc(N3CCN(C)CC3)c2)cc2c1cnn2C(C)C
Method in brief: as §1

givinostat = compound: CCN(CC)Cc1ccc2cc(COC(=O)Nc3ccc(C(=O)NO)cc3)ccc2c1 [givinostat]
Method in brief: as §1

barasertib = compound: CCN(CCCOc1ccc2c(Nc3cc(CC(=O)Nc4cccc(F)c4)[nH]n3)ncnc2c1)CCOP(=O)(O)O [barasertib]
Method in brief: as §1

[7] = compound: CC[C@@H]1C(=O)N(C)c2cnc(Nc3ccc(C(=O)NC4CCN(C)CC4)cc3OC)nc2N1C1CCCC1
Method in brief: as §1

volasertib = compound: CC[C@@H]1C(=O)N(C)c2cnc(Nc3ccc(C(=O)N[C@H]4CC[C@H](N5CCN(CC6CC6)CC5)CC4)cc3OC)nc2N1C(C)C [volasertib]
Method in brief: as §1

[8] = compound: CC[C@H](C)N1C=C(C2=C(C=C(C=C21)C3=CN=C(C=C3)N4CCNCC4)C(=O)NCC5=C(C=C(NC5=O)C)C)C
Method in brief: as §1

epoxomicin = compound: CC[C@H](C)[C@@H](C(=O)N[C@@H]([C@@H](C)O)C(=O)N[C@@H](CC(C)C)C(=O)[C@]1(CO1)C)NC(=O)[C@H]([C@@H](C)CC)N(C)C(=O)C [epoxomicin]
Method in brief: as §1

[9] = compound: CCn1c(C(=O)N(C2CC2)C2CC2)cc2c3c(ncn3C)c(Nc3cc(C)n(C)n3)nc21
Method in brief: as §1

[10] = compound: CCn1cc(-c2ccnc3[nH]c(-c4cccc(CN(C)C)c4)cc23)c(-c2ccc(NC(=O)N(C)C)cc2)n1
Method in brief: as §1

[11] = compound: CN(C)CC(=O)Nc1ccc2[nH]c(=O)c3ccccc3c2c1
Method in brief: as §1

rosiglitazone = compound: CN(CCOC1=CC=C(C=C1)C[C@H]2C(=O)NC(=O)S2)C3=CC=CC=N3 (racemic) [rosiglitazone]
Method in brief: as §1

[12] = compound: CN1C2=C(C3=C1C(=O)N(N=C3)CC4=CC(=CC=C4)N)SC(=C2)S(=O)C
Method in brief: as §1

[13] = compound: CN1CCC(CNc2ccc3ncc(-c4cccc(OC(F)(F)F)c4)n3n2)CC1
Method in brief: as §1

Measured: log2 fold change

BCL10 (UniProt O95999)
inactive: [1] -0.001 | [2] 0.038 | [3] 0.042 | [4] -0.04 | Nexturastat A -0.002 | vemurafenib 0.038 | [5] 0.016 | [6] 0.031 | givinostat 0.005 | barasertib 0.046 | [7] 0.004 | volasertib -0.179 | [8] 0.085 | epoxomicin 0.012 | [9] 0.018 | [10] -0.002 | [11] 0.009 | rosiglitazone 0.013 | [12] 0 | [13] -0.17

BAG3 (UniProt O95817)
inactive: [1] -0.012 | [2] -0.021 | [3] -0.055 | [4] 0.012 | Nexturastat A 0.037 | vemurafenib -0.016 | [5] -0.049 | [6] -0.029 | givinostat -0.009 | barasertib -0.016 | [7] -0.052 | volasertib 0.027 | [8] -0.01 | epoxomicin 0.018 | [9] 0.012 | [10] -0.008 | [11] -0.026 | rosiglitazone -0.011 | [12] 0.011 | [13] -0.137

BCKDK (UniProt O14874)
inactive: [1] -0.031 | [2] 0.004 | [3] -0.033 | [4] 0.008 | Nexturastat A -0.018 | vemurafenib -0.024 | [5] -0.008 | [6] -0.066 | givinostat -0.011 | barasertib -0.013 | [7] 0.087 | volasertib 0.074 | [8] -0.032 | epoxomicin 0.002 | [9] -0.036 | [10] 0.07 | [11] -0.049 | rosiglitazone -0.188 | [12] 0.016 | [13] -0.094

BIRC6 (UniProt Q9NR09)
inactive: [1] 0.024 | [2] -0.015 | [3] -0.05 | [4] 0.011 | Nexturastat A 0.081 | vemurafenib 0.019 | [5] 0.028 | [6] 0.005 | givinostat 0.007 | barasertib -0.01 | [7] -0.07 | volasertib -0.09 | [8] 0.048 | epoxomicin -0.031 | [9] -0.012 | [10] 0.01 | [11] 0.033 | rosiglitazone 0.027 | [12] 0.045 | [13] -0.033

BLMH (UniProt Q13867)
inactive: [1] 0.019 | [2] 0.038 | [3] 0.115 | [4] 0.009 | Nexturastat A -0.06 | vemurafenib 0.041 | [5] -0.034 | [6] 0.013 | givinostat -0.087 | barasertib -0.026 | [7] 0.019 | volasertib 0.033 | [8] 0.133 | epoxomicin 0.065 | [9] 0.001 | [10] 0.011 | [11] 0.051 | rosiglitazone -0.046 | [12] -0.031 | [13] 0.011

BCKDHB (UniProt P21953)
inactive: [1] 0.118 | [2] -0.023 | [3] 0.03 | [4] 0.016 | Nexturastat A 0.086 | vemurafenib 0.041 | [5] 0.034 | [6] -0.002 | givinostat -0.085 | barasertib 0.055 | [7] -0.251 | volasertib -0.079 | [8] -0.068 | epoxomicin -0.054 | [9] 0.003 | [10] -0.139 | [11] -0.039 | rosiglitazone 0.117 | [12] 0.003 | [13] -0.108

B3GNT8 (UniProt Q7Z7M8)
inactive: [1] 0.232

ATXN10 (UniProt Q9UBB4)
inactive: [1] 0.036 | [2] -0.019 | [3] -0.025 | [4] 0.043 | Nexturastat A -0.02 | vemurafenib 0.012 | [5] 0.02 | [6] 0.057 | givinostat -0.001 | barasertib 0.001 | [7] -0.004 | volasertib -0.08 | [8] 0.008 | epoxomicin 0.025 | [9] 0 | [10] -0.037 | [11] 0 | rosiglitazone 0.028 | [12] -0.066 | [13] -0.032

BICD1 (UniProt Q96G01)
inactive: [1] 0.006 | [2] -0.082 | [3] 0.032 | [4] -0.043 | Nexturastat A 0.073 | vemurafenib 0.053 | [5] 0.02 | [6] -0.039 | givinostat 0.024 | barasertib 0.04 | [7] -0.007 | volasertib -0.167 | [8] 0.022 | epoxomicin -0.023 | [9] 0.003 | [10] -0.044 | [11] 0.028 | rosiglitazone 0.014 | [12] -0.025 | [13] -0.098

BCAT2 (UniProt O15382)
inactive: [1] 0 | [2] 0.013 | [3] 0.104 | [4] 0.027 | Nexturastat A 0.002 | vemurafenib 0.025 | [5] -0.033 | [6] -0.043 | givinostat -0.095 | barasertib 0.007 | [7] 0.005 | volasertib 0.06 | [8] 0.001 | epoxomicin 0.009 | [9] -0.009 | [10] 0.009 | [11] -0.017 | rosiglitazone 0 | [12] 0.015 | [13] 0.027

ATRIP (UniProt Q8WXE1)
inactive: [1] 0.089 | [2] 0.026 | [3] -0.04 | [4] -0.04 | Nexturastat A -0.198 | vemurafenib -0.01 | [5] 0.076 | [6] -0.043 | givinostat 0.074 | barasertib -0.011 | [7] 0.121 | volasertib -0.182 | [8] 0.003 | epoxomicin -0.215 | [9] 0.026 | [10] 0.046 | [11] -0.01 | rosiglitazone -0.001 | [12] -0.042 | [13] -0.055

BCKDHA (UniProt P12694)
inactive: [1] -0.014 | [2] 0.003 | [3] -0.039 | [4] -0.048 | Nexturastat A 0.036 | vemurafenib -0.003 | [5] 0.045 | [6] 0.058 | givinostat -0.006 | barasertib 0.075 | [7] -0.056 | volasertib -0.016 | [8] -0.025 | epoxomicin -0.119 | [9] -0.018 | [10] -0.064 | [11] 0.02 | rosiglitazone -0.01 | [12] -0.003 | [13] -0.097

BAG2 (UniProt O95816)
inactive: [1] 0.046 | [2] 0.027 | [3] -0.032 | [4] -0.015 | Nexturastat A 0.15 | vemurafenib -0.047 | [5] 0.093 | [6] 0.107 | givinostat 0.014 | barasertib -0.003 | [7] 0.135 | volasertib 0.135 | [8] 0.012 | epoxomicin -0.172 | [9] 0.066 | [10] 0.081 | [11] -0.116 | rosiglitazone -0.028 | [12] 0.179 | [13] 0.13

ATXN2 (UniProt Q99700)
inactive: [1] -0.035 | [2] 0.029 | [3] -0.013 | [4] 0.021 | Nexturastat A 0.048 | vemurafenib 0.009 | [5] -0.011 | [6] -0.027 | givinostat -0.004 | barasertib 0.014 | [7] 0.017 | volasertib 0.002 | [8] 0.022 | epoxomicin 0.019 | [9] -0.012 | [10] -0.022 | [11] -0.012 | rosiglitazone -0.047 | [12] 0.016 | [13] -0.04

BABAM1 (UniProt Q9NWV8)
inactive: [1] -0.051 | [2] 0.006 | [3] -0.015 | [4] 0.056 | Nexturastat A -0.008 | vemurafenib -0.003 | [5] -0.012 | [6] 0.022 | givinostat -0.125 | barasertib -0.012 | [7] 0.026 | volasertib 0.02 | [8] -0.055 | epoxomicin 0.03 | [9] -0.017 | [10] 0.064 | [11] -0.039 | rosiglitazone 0 | [12] 0.055 | [13] 0.019

BACH1 (UniProt O14867)
inactive: [1] 0.011 | [2] -0.008 | [3] 0.076 | [4] -0.042 | Nexturastat A -0.002 | vemurafenib -0.013 | [5] -0.02 | [6] 0.039 | givinostat -0.001 | barasertib 0.03 | [7] 0.047 | volasertib 0.022 | [8] -0.007 | epoxomicin 0.034 | [9] 0.043 | [10] 0.036 | [11] -0.057 | rosiglitazone -0.039 | [12] -0.028 | [13] -0.132

BROX (UniProt Q5VW32)
inactive: [1] 0.061 | [2] -0.067 | [3] 0.01 | [4] 0.069 | Nexturastat A -0.113 | vemurafenib 0.099 | [5] 0.085 | [6] 0.052 | givinostat 0.036 | barasertib 0.029 | [7] -0.075 | volasertib -0.21 | [8] 0.056 | epoxomicin 0.236 | [9] 0.03 | [10] -0.079 | [11] 0.048 | rosiglitazone 0.028 | [12] -0.071 | [13] 0.002

Two successive entries from above, quoted:
BIRC6 (UniProt Q9NR09)
inactive: [1] 0.024 | [2] -0.015 | [3] -0.05 | [4] 0.011 | Nexturastat A 0.081 | vemurafenib 0.019 | [5] 0.028 | [6] 0.005 | givinostat 0.007 | barasertib -0.01 | [7] -0.07 | volasertib -0.09 | [8] 0.048 | epoxomicin -0.031 | [9] -0.012 | [10] 0.01 | [11] 0.033 | rosiglitazone 0.027 | [12] 0.045 | [13] -0.033

BLMH (UniProt Q13867)
inactive: [1] 0.019 | [2] 0.038 | [3] 0.115 | [4] 0.009 | Nexturastat A -0.06 | vemurafenib 0.041 | [5] -0.034 | [6] 0.013 | givinostat -0.087 | barasertib -0.026 | [7] 0.019 | volasertib 0.033 | [8] 0.133 | epoxomicin 0.065 | [9] 0.001 | [10] 0.011 | [11] 0.051 | rosiglitazone -0.046 | [12] -0.031 | [13] 0.011
